Measured values from patent US20120010178A1, “METHODS AND COMPOUNDS FOR TREATMENT OF NEURODEGENERATIVE DISORDERS” (PRESIDENT AND FELLOWS OF HARVARD COLLEGE, priority 2008, published 2012).
Entries after “also recorded” stand apart in the source; their conditions may differ. At least one compound was matched to its structure with a doubt left. Some results were stated once for a whole list of compounds, not compound by compound.

Columns and labels:
SMN [1] = assay: SMN immunofluorescence quantification (cytoplasm, nucleus, GEMs) in fibroblasts from SMA patients; format: cell-based, human; details: for decrease of basal level of SMN: added to the regular serum media in which cells are maintained, no added PDGF
Description: Specifically, fibroblasts from patients suffering from SMA were treated with Ionomycin (a channel modulator), Ouabain (a cardiac glycoside and channel modulator), PDGF, SAHA (an HDAC inhibitor), Lactacystin (a proteasome inhibitor) or WIN 55,212-2 (a cannabinoid receptor […] and GPCR ligand) for 72 hours. The cells were fixed with methanol/acetone and stained with Pharmingen BD antibodies, followed by 488 AlexaFluor staining. Images were obtained with 60× lens on Zeiss LSM510 META on an inverted confocal microscope.
For example, fibroblasts from patients suffering from SMA were treated with Ouabain, Digoxin or Lanatoside at a concentration of 0, 2.5 nM, 5 nM, 10 nM, 20 nM, 40 nM, 80 nM, […] for 72 hours. The cells were fixed with methanol/acetone and stained with Pharmingen BD antibodies, followed by 488 AlexaFluor staining. Images were obtained with 60× lens on Zeiss LSM510 META on an inverted confocal microscope.
An assay was established for high-content evaluation of SMN protein level in different cellular compartments after treatment with small molecules. SMN protein was visualized by immunofluorescent staining and multiple fields from each plate well were scanned by an automated confocal Opera microscope. […] For each well, the algorithm generated quantitative parameters representing number of cells, as well as SMN fluorescent intensity per cell in cytoplasm, nucleus, number and intensity of GEMs (FIG. 15). […] During the assay transfer to the robotic platform fixation with the ice cold methanol was technically limited, therefore to preserve the maximum possible window we chose to perform the screen on parental fibroblast with PFA fixation.
For fibroblast assays, human fibroblasts lines GM09677 (derived from patient with SMA type 1 disease) and GM03814 (derived from unaffected parental SMA carriers) were used (Coriell Cell Repositories). […] For secondary assays cells from GM09677 line were used.
Fibroblasts were grown in MEM media (Invitrogen) supplemented with 5% Fetal Bovine Serum (FBS, Invitrogen), 2 mM glutamine and 1% penicillin-streptomycin (100 U/ml) in a presence of 5% CO2 at 37° C. For drug treatments, cells were plated and treated 24 h later with 10 μM MG132 (Biomol International), […] Calpeptin (Biomol International), 10 mM ammonium chloride, 1 μM myristoylated PKI, or vehicle for the designated times.
Compounds were stored at appropriate temperature and dissolved accordingly to the manufacturers (Tocris, Enzo, EMD and Sigma-Aldrich) in DMSO (Sigma-Aldrich), unless stated otherwise (Monensin Na in EtOH, DMPQ in water). Growth factors and PDGF neutralizing antibodies (R&D Systems) were reconstituted with buffers recommended by the supplier. […]

SMN [2] = assay: Inhibition of PDGF-stimulated SMN increase in fibroblasts by kinase/receptor inhibitors; format: cell-based, human; details: for PDGF-stimulated SMN increase in presence of inhibitor (in words): SMA patient fibroblasts, PDGF plus inhibitor or neutralizing antibody
Description: Fibroblasts from patients suffering from SMA were treated with PDGF at a concentration of 0, 0.3 ng/ml, 0.63 ng/ml, 1.25 ng/ml, 2.5 ng/ml, 5 ng/ml, 10 ng/ml or 20 ng/ml, in the absence or in the presence of 25 uM DMPQ or 25 uM AG-1296 respectively for 72 hours. The levels of both cytoplasmic and nuclear SMN were detected and quantified using the method described in Example 2.
(§1) Fibroblasts from patients suffering from SMA were either control treated or treated with PDGF at a concentration of 0, 0.63 ng/ml, 1.25 ng/ml, 2.5 ng/ml, 5 ng/ml, 10 ng/ml or 20 ng/ml, in the absence or in the presence of 50 uM LY294002 or 2 uM P1-103 respectively for 72 hours. The levels of both cytoplasmic and nuclear SMN were detected and quantified using the method described in Example 2.
as §1, with “of” for “of 50 uM LY294002 or”, “uM Papamycin” for “uM P1-103 respectively”, “Example x.” for “Example 2.”
A range of concentrations were tested in order not to miss the effects. SMN level were evaluated by Opera Evoteck in each cellular compartment and to assess the cell numbers that are summarized in the Table 3.
Compounds were stored at appropriate temperature and dissolved accordingly to the manufacturers (Tocris, Enzo, EMD and Sigma-Aldrich) in DMSO (Sigma-Aldrich), unless stated otherwise (Monensin Na in EtOH, DMPQ in water). Growth factors and PDGF neutralizing antibodies (R&D Systems) were reconstituted with buffers recommended by the supplier. For generation of the dose curves, 1×10^3 fibroblasts were plated on to 96-well Greiner Senso plates (VWR) and treated with compounds on the second day then fixed and stained at the indicated time points. For GSK inhibitors and performing p-GSK3b(Ser9) detection, two days after plating growth media containing 5% FBS was replaced to the media with FBS reduced down to 0.5%, to starve cells for 72 hours. Addition of the GSK inhibitors was done in 5% FBS enriched media. As previously described, starvation increases levels of constitutively activate GSK3b kinase, allowing to achieve a more dramatic inhibitory effect when GSK inhibitors are added together with growth factors that are also known to inhibit GSK by Ser-9 phosphorylation. […] For all compounds and growth factors control wells received solvent in amount equivalent to the highest concentration of the compound in a dose curve. For PDGF inhibitory studies, cells were pre-treated with kinase inhibitors for 2 hours and PDGF was added with a fresh kinase inhibitor solution and incubated for an additional 3 days.

SMN [3] = assay: High-content fibroblast screen for compounds that modulate SMN level; details: human fibroblasts, 2-3 days with compound;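 note: Anti-SMN immunostaining with confocal imaging of nuclear and cytoplasmic SMN and gem counts, tested at 0.1, 1 and 10 uM, fold change relative to negative control wells on each plate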
SMN [4] = assay: SMN levels in mouse (ES-cell derived) motor neurons; format: cell-based
Description: Mouse HB9-GFP derived SMN deficient motor neuron cells were incubated for 2 days with compounds from libraries and collections.
Motor neurons were produced from mouse ES-cells expressing cherry fluorescent protein (CFP) under the control of the motor neuron-selective Hb9 promoter, as previously described (Wichterle et al., 2002).
GFP expressing motor neurons were derived from mouse ES cells as described below. After growing for approximately 1 week, motor neurons were treated with allsterpaullone. Two days after treatment with allsterpaullone, cells were fixed and stained with SMN antibody or GFP antibody.
mES cells were differentiated into motor neurons according to methods adapted from Wichterle et. al., Cell (2002), 110:385-397. Briefly, mES cells were grown to 70-80% confluence in 10-cm plates (Falcon) in ES cell medium. To form embryoid bodies, cells were washed once with PBS to eliminate mES medium and then incubated with 1 ml of 0.25% trypsin (GIBCO) for 5-10 min at 21-25° C. (RT). Cells were then resuspended in 10 ml of DM1 medium (DMEM-F12, GIBCO), 10% knockout serum (GIBCO), penicillin, streptomycin, glutamine (GIBCO) and 2-mercaptoethanol (GIBCO), counted and plated at a concentration of 200,000 cells per ml in Petri dishes (Falcon). […] The cells were counted and plated on poly-ornithine coated 96-well plates (VWR).

In the case of `COc1cc2ncc(-c3ccccc3)nc2cc1OC` [AG-1296], the “decrease of basal level of SMN” value (SMN [1]) is reported as 15-20%.
In the case of `O=c1cc(N2CCOCC2)oc2c(-c3ccccc3)cccc12` [LY294002], the “levels of cytoplasmic and nuclear SMN (in words)” value (SMN [1]; SMA patient fibroblasts, substance alone) is reported as “decrease”, the “effect on GEMs (number / intensity, in words)” value (SMN [1]; fibroblasts) is reported as “main SMN decrease occurs in Gem Intensity” and the “PDGF-stimulated SMN increase in presence of inhibitor (in words)” value (SMN [2]) is reported as “PDGF does not increase the levels of SMN; also recorded: able to prevent PDGF induced SMN increase in all cellular compartments; also recorded: abrogated; also recorded: completely abolished”. For the same molecule, the “Cell Number (affected by inhibitor)” value (SMN [2]; inhibitor at the concentration of the table row, PDGF stimulated fibroblasts) was “Yes” and the “SMN level in fibroblast screen (increase or decrease)” value (SMN [3]) was “decreased SMN”.
In the case of `COc1cc(OC)c2cc(-c3ccncc3)cnc2c1.Cl.Cl` [DMPQ], the “decrease of basal level of SMN” value (SMN [1]) is reported as 15-20%.
For `CO[C@H]1C[C@@H]2CC[C@@H](C)[C@@](O)(O2)C(=O)C(=O)N2CCCC[C@H]2C(=O)O[C@H]([C@H](C)C[C@@H]2CC[C@@H](O)[C@H](OC)C2)CC(=O)[C@H](C)/C=C(\C)[C@@H](O)[C@@H](OC)C(=O)[C@H](C)C[C@H](C)/C=C/C=C/C=C/1C` [Rapamycin], the “spot intensity in ES-derived motor neurons” value (SMN [4]; ES-derived motor neurons) was “decrease”, the “SMN levels in motor neurons (in words)” value (SMN [4]; mouse motor neurons) was “decrease” and the “PDGF-stimulated SMN increase in presence of inhibitor (in words)” value (SMN [2]) was “To a lesser degree”. The “PDGF-stimulated SMN increase in presence of inhibitor (in words)” value (SMN [2]; listed as Papamycin) was “abrogated”, the “PDGF-stimulated SMN increase in presence of inhibitor (in words)” value (SMN [2]; listed as rapamycin) was “PDGF does not increase the levels of SMN” and the “SMN level in fibroblast screen (increase or decrease)” value (SMN [3]) was “decreased SMN”.
